Test results reported in publication doi:10.1101/2023.05.10.540045.
These are yes or no findings as the source states them, for the method shown. In cells and extracts the contact can be indirect. Here binding means that the protein was enriched with, or labelled near, the bait; the list need not be complete. For part of these data: A no says only that the protein was not detected with the bait.

By UniProt entry, the sequences of proteins in these tests, tags left out.
UniProt Q8WWM9: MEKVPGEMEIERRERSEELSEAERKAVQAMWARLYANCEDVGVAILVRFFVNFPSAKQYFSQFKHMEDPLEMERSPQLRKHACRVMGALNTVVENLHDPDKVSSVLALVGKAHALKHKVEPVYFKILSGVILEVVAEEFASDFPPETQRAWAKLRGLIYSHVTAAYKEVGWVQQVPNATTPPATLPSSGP

How the values were obtained:
[1] = biological target: hCYGB-tag (wild type human cytoglobin, DYKDDDDK tagged) (human) (UniProt Q8WWM9); assay: affinity purification with mass spectrometry
[2] = biological target: hCYGB-tag (wild type human cytoglobin, DYKDDDDK tagged) (human) (UniProt Q8WWM9); assay: condition: only cells without hydrogen peroxide treatment

Binder | binding [1] | binding [2]
High Mobility Group Box 2 (HMGB2), endogenous in HEK293 (protein, UniProt P26583 1-209) MGKGDPNKPRGKMSSYAFFVQTCREEHKKKHPDSSVNFAEFSKKCSERWKTMSAKEKSKFEDMAKSDKARYDREMKNYVPPKGDKKGKKKDPNAPKRPPSAFFLFCSEHRPKIKSEHPGLSIGDTAKKLGEMWSEQSAKDKQPYEQKAAKLKEKYEKDIAAYRAKGKSEAGKKGPGRPTGSKKKNEPEDEEEEEEEEDEDEEEEDEDEE | binds | no binding
serine/threonine-protein phosphatase 6 regulatory subunit 1 (PP6R1) (protein, UniProt Q9UPN7 1-881) MFWKFDLHTSSHLDTLLEREDLSLPELLDEEDVLQECKVVNRKLLDFLLQPPHLQAMVAWVTQEPPDSGEERLRYKYPSVACEILTSDVPQINDALGADESLLNRLYGFLQSTGSLNPLLASFFSKVMGILINRKTDQLVSFLRKKDDFVDLLLQHIGTSAIMDLLLRLLTCVERPQLRQDVVNWLNEEKIVQRLIEQIHPSKDENQHSNASQSLCDIIRLSREQMIQVQDSPEPDQLLATLEKQETIEQLLSNMFEGEQSQSVIVSGIQVLLTLLEPRRPRSESVTVNSFFSSVDGQLELLAQGALESTVSSVGALHALRPRLSCFHQLLLEPPKLEPLQMTWGMLAPPLGNTRLHVVKLLASALSANDAALTHELLALDVPNTMLDLFFHYVFNNFLHAQVEGCVSTMLSLGPPPDSSPETPIQNPVVKHLLQQCRLVERILTSWEENDRVQCAGGPRKGYMGHLTRVAGALVQNTEKGPNAEQLRQLLKELPSEQQEQWEAFVSGPLAETNKKNMVDLVNTHHLHSSSDDEDDRLKEFNFPEEAVLQQAFMDFQMQRMTSAFIDHFGFNDEEFGEQEESVNAPFDKTANITFSLNADDENPNANLLEICYKDRIQQFDDDEEEEDEEEAQGSGESDGEDGAWQGSQLARGARLGQPPGVRSGGSTDSEDEEEEDEEEEEDEEGIGCAARGGATPLSYPSPGPQPPGPSWTATFDPVPTDAPTSPRVSGEEELHTGPPAPQGPLSVPQGLPTQSLASPPARDALQLRSQDPTPPSAPQEATEGSKVTEPSAPCQALVSIGDLQATFHGIRSAPSSSDSATRDPSTSVPASGAHQPPQTTEGEKSPEPLGLPQSQSAQALTPPPIPNGSAPEGPASPGSQ | binds | –
